No constants are given. Whether binding was seen depends on the method and setting.

Experiment in all cases: ThT fluorescence aggregation assay; spontaneous self-assembly of disaggregated synthetic peptides, 200 µM, PBS, 25 µM ThT, room temperature, no inducer; the R2R3 peptides of Fig. 4 also looked at by TEM; both purified
In assay [1] the target is R1R3 peptide fragment with a corresponding P301L mutation (R1R3-P270L) (human).
The target in assay [2] is wild-type peptide fragment R1R3 mimicking a 3R splice isoform (human).
In assay [3] the target is upstream N-terminal sequence 295DNIKHV300 (human).

B1: R1R3 peptide fragment with a corresponding P301L mutation (R1R3-P270L) (peptide)
peptide: ENLKHQLGGGKVQIVYK
modifications: N-terminal acetylation; C-terminal amidation
B1: the binding result in assay [1] was “no binding (tested: 200 µM, within a week)”.

B2: wild-type peptide fragment R1R3 mimicking a 3R splice isoform (peptide)
peptide: ENLKHQPGGGKVQIVYK
modifications: N-terminal acetylation; C-terminal amidation
Take B2: the binding result in assay [2] is reported as “no binding (tested: 200 µM)”.

B3: upstream N-terminal sequence 295DNIKHV300 (peptide)
peptide: DNIKHV
modifications: N-terminal acetylation; C-terminal amidation
Consider B3, for which, in assay [3], the binding result was “no binding (tested: 200 µM)”.

Values taken from article PMC6555816, “Tau local structure shields an amyloid-forming motif and controls aggregation propensity” (Nature Communications, 2019).
